Some of the results follow.
Target: OsWRKY34 (Oryza sativa, UniProt Q0JBA9 1-250)
Assay: protein-binding microarray (RPBM); PBS, 2% BSA, 51.3 ng/ul salmon testes DNA, 50 uM zinc acetate, 200 nM TF, 25 C, 1 h; high values mean tight binding
Conditions: protein: recombinant; tags: N-terminal polyhistidine and DsRed monomer fusion (pET32a); label: CyDye5-dUTP incorporated in the synthesized complementary strand; 3' TTTTT single-stranded linker to array surface; dsDNA, one strand shown
Method in brief: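 Per-feature fluorescence intensity (arbitrary units), read on an Axon 4000B scanner, is the binding signal. Transcription factors carrying an N-terminal polyhistidine tag and DsRed fusion were expressed in E. coli BL21-CodonPlus and purified on Ni–NTA. A custom Agilent array, made double-stranded by primer extension with Cy5-dUTP and blocked with 2% BSA, was incubated with 200 nM protein in PBS, 2% BSA, salmon testes DNA and 50 µM zinc acetate at 25 °C for 1 h and then washed.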

Protein sequences, listed by entry. Tags and fused reporters are not part of them.
UniProt Q0JBA9, entry or part of it: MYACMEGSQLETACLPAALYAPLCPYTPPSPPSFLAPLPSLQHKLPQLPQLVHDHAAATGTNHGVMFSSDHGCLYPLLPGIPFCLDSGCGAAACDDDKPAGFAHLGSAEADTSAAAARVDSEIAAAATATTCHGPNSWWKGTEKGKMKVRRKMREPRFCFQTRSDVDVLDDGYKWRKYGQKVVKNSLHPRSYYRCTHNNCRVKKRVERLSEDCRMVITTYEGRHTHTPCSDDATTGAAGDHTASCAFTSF

Sequence	binding signal
GATACACCCATGCCAATTCATTTGCCTTTGATTAATAAAACGGAGTCACCTAGTGCAG	8690 fluorescence intensity (a.u.)
CCTCGACGACCTCTACACCATGTGGCGCTACCTGCCGTCGCGGAGTCACCTAGTGCAG	8580 fluorescence intensity (a.u.)
ACGTAGTTTTTCTGTGTTTTTTTTCTTATTGATTATAGATCGGAGTCACCTAGTGCAG	9190 fluorescence intensity (a.u.)
CCCAACACGGCCCATCCACGCAGCCTTCTTTGCCTATATCCGGAGTCACCTAGTGCAG	10200 fluorescence intensity (a.u.)
AAGTCTGTTTATAAAAGTCGACATGTGTATCACATTATATCGGAGTCACCTAGTGCAG	8780 fluorescence intensity (a.u.)
AAAAAGTCAACGGCGTCAAACATATTGAAACGGAGGGAGTCGGAGTCACCTAGTGCAG	8240 fluorescence intensity (a.u.)
CCACTCCGACTAAGCCTTCACATTTCTTCTCTAGCGTTACCGGAGTCACCTAGTGCAG	11300 fluorescence intensity (a.u.)
ACATGCTGCATTTCTTTTTTCATGGTTTGGCACTTATTTACGGAGTCACCTAGTGCAG	9200 fluorescence intensity (a.u.)
CTGAACTTTTTTTTTGCTTAAATCCTCTGTATCACCCCAACGGAGTCACCTAGTGCAG	8740 fluorescence intensity (a.u.)
GGCAGCCCGACCTACGCGTACCCACGTATTCCCCACCTTACGGAGTCACCTAGTGCAG	10300 fluorescence intensity (a.u.)
ACCTCATAGTTGTGCAAGTTATCGTGTTTTTTTGTCTGTTCGGAGTCACCTAGTGCAG	14800 fluorescence intensity (a.u.)
CTATTTTGCCATTTTGCATTTTCTACATACCAATTTATTTCGGAGTCACCTAGTGCAG	8350 fluorescence intensity (a.u.)
GTTTCGTTCGATATGGCAGCTGTTCACTCTTGGTCCTCGGCGGAGTCACCTAGTGCAG	8380 fluorescence intensity (a.u.)
AGATCCACGCGTGTTGCGGACTTGCGGTTGCTTTTGTTCGCGGAGTCACCTAGTGCAG	8620 fluorescence intensity (a.u.)
CCTTTTCAATGTTCTTGTCATCACTGCTCGTGTCACCCGTCGGAGTCACCTAGTGCAG	11400 fluorescence intensity (a.u.)
ATTTTCAAAATATTTGACACTGTTGACTTTTTAGTACATACGGAGTCACCTAGTGCAG	9840 fluorescence intensity (a.u.)
CGTCTCACCGCCACCGATTCTCGTCGCCGCCGACGCCTTCCGGAGTCACCTAGTGCAG	8790 fluorescence intensity (a.u.)
TTCTAACTTTTCGTCACATCGAACTTTTCTACGCGCACAACGGAGTCACCTAGTGCAG	8230 fluorescence intensity (a.u.)
ATGCTTCAATTCCATATTTCTTGGCCTCCTCTTCTCCATGCGGAGTCACCTAGTGCAG	8380 fluorescence intensity (a.u.)
TTTCTCTTTCTTTTTCTTTTTTGGGCCTCCTAAAGTTGACCGGAGTCACCTAGTGCAG	8020 fluorescence intensity (a.u.)
GGGTGGAGCTGAACTGATGGGCCGAACTATGTATGGTTGGCGGAGTCACCTAGTGCAG	9030 fluorescence intensity (a.u.)
ATTCCGTGTTCAATTCCTAACACGCTTATAATTATTTCTTCGGAGTCACCTAGTGCAG	8100 fluorescence intensity (a.u.)
TCGCTGACATGTGGGCCCGCGTCTCCGCTCCATCGCGAACCGGAGTCACCTAGTGCAG	9400 fluorescence intensity (a.u.)

A second format for part of the listing above:
Sequence | binding signal
CCCAACACGGCCCATCCACGCAGCCTTCTTTGCCTATATCCGGAGTCACCTAGTGCAG | 10200 fluorescence intensity (a.u.)
AAGTCTGTTTATAAAAGTCGACATGTGTATCACATTATATCGGAGTCACCTAGTGCAG | 8780 fluorescence intensity (a.u.)

— paper PMC7819943, “Rice protein-binding microarrays: a tool to detect cis-acting elements near promoter regions in rice”
